Measured values reported in the supplement of paper PMC3334620.
In all, about 33,000 sequences were measured (“E-score (-0.5 to 0.5)”: median about -0.015, highest 2% from about 0.3 on). Some of the results follow.

Target: T1, Abf1 (UniProt P14164)
T1 sequence: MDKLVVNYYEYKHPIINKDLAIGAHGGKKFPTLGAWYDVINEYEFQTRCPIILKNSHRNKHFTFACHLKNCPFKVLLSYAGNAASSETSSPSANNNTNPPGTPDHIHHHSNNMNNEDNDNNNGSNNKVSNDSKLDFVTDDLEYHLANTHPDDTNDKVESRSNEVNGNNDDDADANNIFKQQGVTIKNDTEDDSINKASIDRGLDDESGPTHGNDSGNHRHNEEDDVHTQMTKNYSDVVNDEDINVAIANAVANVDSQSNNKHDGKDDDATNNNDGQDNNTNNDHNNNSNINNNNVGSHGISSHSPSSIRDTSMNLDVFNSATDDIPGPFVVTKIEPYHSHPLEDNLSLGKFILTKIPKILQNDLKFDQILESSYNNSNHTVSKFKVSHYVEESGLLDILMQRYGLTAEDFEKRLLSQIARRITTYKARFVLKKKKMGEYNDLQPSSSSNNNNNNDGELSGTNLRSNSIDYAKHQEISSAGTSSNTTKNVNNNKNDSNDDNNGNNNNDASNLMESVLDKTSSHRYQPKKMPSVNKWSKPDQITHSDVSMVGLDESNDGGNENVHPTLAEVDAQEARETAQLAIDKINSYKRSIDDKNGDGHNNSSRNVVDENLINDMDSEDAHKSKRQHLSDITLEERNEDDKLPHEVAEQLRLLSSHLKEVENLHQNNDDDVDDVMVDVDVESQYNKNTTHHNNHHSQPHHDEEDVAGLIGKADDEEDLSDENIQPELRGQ
Assay: PBM E-score (8-mer binding enrichment) (E-score (-0.5 to 0.5)); higher = stronger / more preferred TF binding
Settings: protein concentration: 200 nM; construct: GST-full length
In short: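 Full-length yeast transcription factors or their DNA-binding domains, GST-tagged and expressed with PURExpress, were applied at about 100-200 nM to universal all-10-mer Agilent arrays. These arrays had been made double-stranded by primer extension on fresh or once-stripped slides. Detection used fluorescent anti-GST, normalisation used masliner, and E-scores for ungapped eight-base words pooled with reverse complements came from the Universal PBM Analysis Suite.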

First: GCAGAACA
Second: GTACGAAC
The “PBM E-score” value of the first is lower: -0.122 for the first, 0.418 for the second.

Going from AGCCCCCA to TCCTTGCA, the “PBM E-score” value rises from -0.434 to -0.341.

Going from AGGTCTCG to GTTTCGAA, the “PBM E-score” value rises from -0.136 to 0.0325.

Going from ATGTCAGA to AGATATCC, the “PBM E-score” value rises from -0.0353 to 0.232.

Going from AAATGATT to GTAAAGGA, the “PBM E-score” value falls from 0.275 to 0.0222.

Compared with CACTTGAG, ACCCCCTA is lower in “PBM E-score” value: -0.156 for the first, -0.224 for the second.

Compared with AGGGACAA, ACGATCGC is higher in “PBM E-score” value: -0.0947 for the first, 0.265 for the second.

Going from AGCGAACA to CTACTGGA, the “PBM E-score” value falls from -0.00595 to -0.176.

Going from TCCGTGAA to TAAGAGCA, the “PBM E-score” value falls from 0.238 to -0.0807.

First: CCCCTGGA
Second: CAATAAAG
The “PBM E-score” value of the first is lower: -0.17 for the first, -0.0422 for the second.

Going from ACGCGCAT to GCTTAGAC, the “PBM E-score” value falls from 0.0499 to -0.0521.

First: ATGAGTGG
Second: CCAAGGCC
The “PBM E-score” value of the first is higher: -0.103 for the first, -0.253 for the second.

Compared with GCGAATCA, GCGCTCCC is lower in “PBM E-score” value: 0.156 for the first, -0.11 for the second.

Compared with CGCCGGGA, CATGTATA is higher in “PBM E-score” value: -0.181 for the first, -0.0591 for the second.

First: TCCTGGCA
Second: ATGTTTGA
The “PBM E-score” value of the first is lower: -0.275 for the first, 0.00846 for the second.

Compared with CACGAACA, ATAACGTA is higher in “PBM E-score” value: 0.186 for the first, 0.249 for the second.

First: ATGCTGTG
Second: AGTTGAAC
The “PBM E-score” value of the first is lower: 4e-05 for the first, 0.0182 for the second.

First: TGCTCACA
Second: AGTGTTTC
The “PBM E-score” value of the first is higher: 0.181 for the first, -0.0199 for the second.

Going from ATACTCGG to AAGAATAC, the “PBM E-score” value falls from 0.0238 to -0.0674.

First: GACAATTA
Second: ACGAGGCG
The “PBM E-score” value of the first is lower: 0.0768 for the first, 0.191 for the second.

Going from AGATAGCT to CCGAGGAG, the “PBM E-score” value falls from -0.0374 to -0.269.

First: CGGAGTAG
Second: CGGGGACG
The “PBM E-score” value of the first is lower: -0.0389 for the first, -0.0197 for the second.

Going from AGTGTAAC to GAAGAATA, the “PBM E-score” value falls from -0.00614 to -0.095.

Going from GCCACACA to CACGCACA, the “PBM E-score” value rises from -0.262 to 0.0735.

First: ACTGTGTC
Second: AATTAGGG
The “PBM E-score” value of the first is higher: 0.0262 for the first, -0.19 for the second.

First: ACGAACAA
Second: CAATGGTA
The “PBM E-score” value of the first is higher: 0.331 for the first, 0.0522 for the second.

First: CTGGCTAA
Second: AGGGAGCC
The “PBM E-score” value of the first is higher: -0.121 for the first, -0.367 for the second.

Compared with ACAATCAC, GCGCACGC is lower in “PBM E-score” value: 0.103 for the first, -0.0586 for the second.

Going from ATTCGAAC to GCAGGCGC, the “PBM E-score” value falls from -0.0201 to -0.261.

Going from AAGGCCCC to GACTCTGA, the “PBM E-score” value rises from -0.129 to -0.123.

First: GTCGGGGA
Second: TGGATGAA
The “PBM E-score” value of the first is lower: -0.0711 for the first, 0.0531 for the second.

Going from CGCCCCCG to ACTTACGC, the “PBM E-score” value rises from -0.368 to -0.0756.

Going from AGACATAC to AGAGGCAT, the “PBM E-score” value falls from -0.018 to -0.132.

Going from CCAGCAAC to CGGATTTA, the “PBM E-score” value rises from -0.117 to 0.104.

Going from ACGGCGAC to AATTTAGG, the “PBM E-score” value falls from 0.224 to 0.107.

Compared with AGCGTCCG, AGTGTGAA is higher in “PBM E-score” value: -0.17 for the first, 0.0488 for the second.

First: GAATGTTA
Second: ATGCATCG
The “PBM E-score” value of the first is higher: 0.0974 for the first, 0.0268 for the second.

Going from AAAGAGAC to ATCGTAGC, the “PBM E-score” value rises from -0.111 to 0.201.

Going from GACAACTA to AAGCATAA, the “PBM E-score” value falls from 0.0809 to 0.0416.

First: ACTCCGGC
Second: GATGCTAA
The “PBM E-score” value of the first is higher: 0.0156 for the first, 0.00632 for the second.

Compared with AGCTAGAC, CTACCCTC is lower in “PBM E-score” value: 0.0184 for the first, -0.127 for the second.

Going from ACCAGCAA to ACGAGCCT, the “PBM E-score” value falls from 0.014 to 0.00254.

Going from GCCCTCGA to CGTAGGCC, the “PBM E-score” value rises from -0.262 to 0.0973.

Compared with AGCGTATC, GATTGGCA is lower in “PBM E-score” value: -0.022 for the first, -0.24 for the second.

First: GTCATGTA
Second: GCGATCAA
The “PBM E-score” value of the first is lower: 0.0381 for the first, 0.159 for the second.

Going from TCAATCCA to GCACCCAA, the “PBM E-score” value falls from 0.088 to -0.239.

First: CTAAGCAG
Second: ATGGGTTG
The “PBM E-score” value of the first is lower: -0.0714 for the first, 0.0214 for the second.

Going from CCGGTCCG to CCCGTCTC, the “PBM E-score” value rises from -0.188 to -0.0841.

Going from TCCGAGGA to ATGAGATA, the “PBM E-score” value rises from -0.0625 to 0.114.

Going from GGACTTAC to CCTCCTGA, the “PBM E-score” value rises from -0.162 to -0.0904.

Going from CTCCGGTC to GAATGGCC, the “PBM E-score” value rises from -0.189 to -0.0962.

First: CAGTCGTC
Second: CATCGAGC
The “PBM E-score” value of the first is higher: -0.0143 for the first, -0.169 for the second.

First: AGTCCTAG
Second: CCTCCGTA
The “PBM E-score” value of the first is lower: -0.211 for the first, 0.116 for the second.

Compared with GAGTATGC, CTACTTAA is lower in “PBM E-score” value: 0.0528 for the first, -0.0903 for the second.

First: CATTCAAG
Second: AAGGACCG
The “PBM E-score” value of the first is higher: 0.0298 for the first, -0.16 for the second.

Going from AGCGTCTC to CAGCGTAG, the “PBM E-score” value rises from -0.161 to 0.00721.

First: CATGTCGG
Second: GGCTCACA
The “PBM E-score” value of the first is lower: -0.0428 for the first, -0.0273 for the second.

Compared with GACACGTA, CGTGGTAC is higher in “PBM E-score” value: 0.0943 for the first, 0.161 for the second.

Going from TCCATACA to AAAAATGG, the “PBM E-score” value falls from 0.101 to -0.0408.

First: ACTTGACC
Second: ACCGTGAC
The “PBM E-score” value of the first is lower: -0.108 for the first, 0.167 for the second.

Compared with CTATAGCA, AGGAGAGC is lower in “PBM E-score” value: 0.0359 for the first, -0.383 for the second.

First: AAGCGTTG
Second: AGAAGACA
The “PBM E-score” value of the first is lower: 0.0339 for the first, 0.101 for the second.

Compared with CGGAGCCC, TATTTCCA is higher in “PBM E-score” value: -0.28 for the first, 0.089 for the second.

Compared with CCGGGCAG, CAGCCGCG is higher in “PBM E-score” value: -0.259 for the first, -0.23 for the second.

First: ATACAGTA
Second: GTGATAGA
The “PBM E-score” value of the first is lower: 0.0839 for the first, 0.192 for the second.

Going from GCAATGAA to AGTTGGCA, the “PBM E-score” value falls from 0.0384 to -0.0976.

First: ACTTCACT
Second: AATAAGGA
The “PBM E-score” value of the first is lower: -0.0471 for the first, -0.0387 for the second.

Going from ATTTAAAG to GCGGAAGC, the “PBM E-score” value falls from 0.185 to -0.15.

First: CCGCGATC
Second: CTGGGACC
The “PBM E-score” value of the first is higher: 0.0149 for the first, -0.164 for the second.

Going from AACTCCAG to GGCTTAGA, the “PBM E-score” value rises from -0.102 to -0.0672.

First: CTGCTCAA
Second: AACCATAG
The “PBM E-score” value of the first is lower: -0.113 for the first, -0.0259 for the second.

First: GGCAAGCA
Second: ACTGTGAC
The “PBM E-score” value of the first is lower: -0.141 for the first, 0.145 for the second.

First: CATTCCAC
Second: TAACACGA
The “PBM E-score” value of the first is lower: -0.0854 for the first, 0.228 for the second.

Compared with AGTCCTAA, ACAGTCGG is lower in “PBM E-score” value: 0.111 for the first, -0.121 for the second.

First: CTTAGTTA
Second: GGATGACA
The “PBM E-score” value of the first is lower: -0.00602 for the first, 0.253 for the second.

Going from ATCCAAGG to ACACACGT, the “PBM E-score” value falls from -0.0148 to -0.122.

Compared with AGCAAAAA, TGGACTAA is higher in “PBM E-score” value: -0.04 for the first, 0.0233 for the second.

First: CCGAGGCG
Second: TCACGGCA
The “PBM E-score” value of the first is lower: -0.0239 for the first, 0.296 for the second.

Compared with CTTCCGTA, ACGTAATC is lower in “PBM E-score” value: 0.238 for the first, -0.0476 for the second.

First: ACTATCGG
Second: CAATGTCA
The “PBM E-score” value of the first is lower: -0.0681 for the first, 0.235 for the second.

First: CGGTGCCC
Second: AATTGAGT
The “PBM E-score” value of the first is lower: -0.156 for the first, 0.00961 for the second.

First: AAAAAAGT
Second: CTGTAACA
The “PBM E-score” value of the first is higher: 0.0534 for the first, -0.187 for the second.

First: AAGGTCAT
Second: ACTCTGTG
The “PBM E-score” value of the first is higher: 0.164 for the first, -0.0599 for the second.

First: CCACATCA
Second: ATGGATTC
The “PBM E-score” value of the first is higher: 0.115 for the first, 0.0308 for the second.

Compared with AACCCCGG, ACCCCTGA is lower in “PBM E-score” value: 0.00753 for the first, -0.179 for the second.

First: ACGACGGC
Second: CACTACGG
The “PBM E-score” value of the first is higher: 0.164 for the first, 0.135 for the second.
